Laboratory results published in paper PMC3248148.
Results are given in words; binding and its absence hold for the method and conditions named.

Biological target: human Hsp90α (human) (UniProt P07900)
Assay: dynamic light scattering; 0.02mg/ml Hsp90 in a 1:1 molar ratio with bovine serum albumin, 60 minute time course; both purified

With “bovine serum albumin (from UniProt P02769 25-607)” the binding was “no binding (tested: 1:1 molar ratio, 0.02mg/ml)”.
